Test results taken from patent US10813905B2, “Methods of treating sickle cell disease and related disorders using fumaric acid esters” (Augusta University Research Institute, Inc., priority 2012, dated 2020).
Structures can show the parent of a compound that is named as a salt. At least one compound was matched to its structure with a doubt left.

Experiments:
γ-globin promoter = experiment: KU812 dual-luciferase reporter assay of γ-globin promoter activity; assay type: cell-based, human; conditions: varying dosages, 48 hour
Source text: KU812 stable cell lines were created by co-transfecting wild-type KU812 cells with pEGFP-NI (G418 selectable marker) and the μLCRβprRluc AγprFluc dual reporter a kind gifts from Dr. George Stamatoyannopoulos (University of Washington). Briefly, the 315-bp human β-globin gene promoter sequence was inserted upstream of the Renilla along with a polyadenylation signal downstream to create PβprRluc. Likewise, 1.4 kb of human aγ-globin promoter was inserted upstream of firefly luciferase to create AγprFluc. The μLCR (locus control region), PβprRluc, and AγprFluc fragments were subsequently cloned into the mammalian vector, pRL-null. […] FK228 and analogues were screened at concentrations between 1-1000 nM for 48 hr and cell toxicity was monitored by 2% Trypan blue exclusion. The effect of drug treatments on γ-globin and β-globin promoter activity was monitored by luciferase assay.
Luciferase activity was monitored under the different experimental conditions using the Dual Luciferase Assay Reporter System (Promega, Madison, Wis.). The activity of firefly luciferase represents γ-globin promoter activity (γF), while the renilla luciferase is the read-out for β-globin promoter activity (βR). […] Total protein was determined by Bradford assay on a Beckman DU 640 spectrophotometer (Chaska, Minn.) and luciferase activity was corrected for total protein. […]

[1] = test system: γ-globin gene expression in ARPE-19 cells; experiment: γ-globin expression by RT-PCR/qPCR in ARPE-19 cells; assay type: cell-based, human; conditions: 100 μM, 0-24 h
[2] = test system: HbF protein in ARPE-19 cells; experiment: HbF protein immunofluorescence in ARPE-19 cells; assay type: cell-based, human; conditions: FITC-labeled anti-HbF antibody
[3] = test system: γ-globin gene expression in primary RPE cells; experiment: γ-globin/HbF expression in primary RPE cells from humanized mice; assay type: cell-based, mouse
Protocol: The effect of MMF on primary RPE cells was also investigated. RPE cells were isolated from the eyes of humanized mice and used to establish primary RPE cell cultures. […] Primary RPE cells were cultured in the presence or absence of MMF at concentrations ranging from 0-1000 μM for a period of 9 hours. Total RNA was prepared and γ-globin gene expression analyzed by qPCR. […] Data are represented as mean±SEM; *P<0.01, **P<0.001.
Identical experiments were performed using the human RPE cell line ARPE-19, an established model for the study of RPE19, and primary RPE cell cultures established from the eyes of HbAA- and HbSS-expressing Townes humanized knock-in SCD mice (Jackson Laboratories, Bar Harbor, Me.) per our published method. Additionally, MMF (1 mM final concentration) or PBS (control) was injected intravitreally into the eyes of HbAA and HbSS mice and retinal γ-globin and HbF expression analyzed by qPCR and immunofluorescence 24 h post-injection. Animal studies were approved by the Georgia Regents University Institutional Committee for Animal Use in Research and Education.
HbF protein production in ARPE-19 cells exposed to MMF (1000 μM) for 24 h was evaluated using a FITC-conjugated HbF antibody and fluorescence microscopy (data not shown). Cell nuclei were counterstained with DAPI. […]

[4] = test system: γ-globin mRNA and HbF protein in RPE/eyecup and neural retina; experiment: Intravitreal injection in HbAA and HbSS mice, retinal γ-globin mRNA and HbF protein; assay type: in vivo, mouse; conditions: 1 mM final concentration, 24 h
OCTN1 [5] = experiment: OCTN1 mRNA expression in KU812 cells; assay type: cell-based, human; conditions: 1000 μM, 16 h
OCTN1 [6] = experiment: OCTN1 mRNA expression in ARPE-19 cells; assay type: cell-based, human; conditions: RPE (ARPE-19) cells; MMF 1000 μM, HU 100 μM
Source text: Red blood cells, cells of erythroid lineage, are the primary producers of hemoglobin. […] The includes retinal pigment epithelial (RPE) cells, a cell type critical to normal visual function. […] Data are represented as mean±SEM; *p<0.05.

OCTN1 [7] = experiment: OCTN1 mRNA and protein expression in HbAA and HbSS primary RPE cells; assay type: cell-based, mouse; conditions: 1000 μM
OCTN1 [8] = experiment: OCTN1 protein immunofluorescence in retina after intravitreal injection; assay type: in vivo, mouse; conditions: 1 mM final concentration, 24 h post-injection

Q: Which results are given for `COC(=O)/C=C/C(=O)O` [MMF, monomethyl fumarate]?
A: γ-globin promoter activity (γ/γ+2β luciferase) (γ-globin promoter): induced γ-globin promoter activity in a dose-dependent manner; γ-globin gene expression [1]: time-dependent increase in γ-globin gene expression; HbF protein expression [2]: corresponding increase in HbF protein expression; γ-globin gene expression ([3]; 0-1000 μM, 9 hours): dose-dependent increase in γ-globin gene expression; γ-globin expression and HbF production in RPE cells ([3]; ARPE-19 and primary RPE cells (FIGS. 8B, 8D, 8E, 11)): induction of γ-globin expression and HbF production; γ-globin mRNA and HbF protein in RPE/eyecup and neural retina [4]: significant elevation of γ-globin mRNA and HbF protein; OCTN1 expression (OCTN1 [5]): OCTN1 expression is also induced; OCTN1 expression (OCTN1 [6]): induces OCTN1 expression; OCTN1 expression, RNA and protein (OCTN1 [7]): induced expression of OCTN1 robustly both at the RNA and protein level; OCTN1 protein expression in retina (OCTN1 [8]): upregulated throughout the entire retina
